Test: Lipidomic analysis of brain, liver and heart phospholipids of WT and Mfsd2a KO mice (Table 2)
Format: in vivo
Conditions: MS, normalized to internal standard; for Amount of lipid species, brain-KO1 / Amount of lipid species, liver-KO1: Mfsd2a KO mouse 1; for Amount of lipid species, brain-KO2 / Amount of lipid species, liver-KO2: Mfsd2a KO mouse 2; for Amount of lipid species, brain-KO3 / Amount of lipid species, liver-KO3: Mfsd2a KO mouse 3; for Amount of lipid species, brain-KO4 / Amount of lipid species, liver-KO4: Mfsd2a KO mouse 4; for Amount of lipid species, brain-WT1 / Amount of lipid species, liver-WT1: wild-type mouse 1; for Amount of lipid species, brain-WT2 / Amount of lipid species, liver-WT2: wild-type mouse 2; for Amount of lipid species, brain-WT3 / Amount of lipid species, liver-WT3: wild-type mouse 3; for Amount of lipid species, brain-WT4 / Amount of lipid species, liver-WT4: wild-type mouse 4; for Amount of lipid species, brain-WT5 / Amount of lipid species, liver-WT5: wild-type mouse 5

Row | Compound | Amount of lipid species, brain-KO1 | Amount of lipid species, brain-KO2 | Amount of lipid species, brain-KO3 | Amount of lipid species, brain-KO4 | Amount of lipid species, brain-WT1 | Amount of lipid species, brain-WT2 | Amount of lipid species, brain-WT3 | Amount of lipid species, brain-WT4 | Amount of lipid species, brain-WT5 | Amount of lipid species, liver-KO1 | Amount of lipid species, liver-KO2 | Amount of lipid species, liver-KO3 | Amount of lipid species, liver-KO4 | Amount of lipid species, liver-WT1 | Amount of lipid species, liver-WT2 | Amount of lipid species, liver-WT3 | Amount of lipid species, liver-WT4 | Amount of lipid species, liver-WT5
1 | CCCCCCCCCCCCCCCC(=O)OC[C@@H](O)COP(=O)(O)OC1[C@H](O)[C@H](O)C(O)[C@H](O)[C@H]1O (stereo partly drawn) [LPI16:0] | 0.002979 mol percent in total phospholipid analysed | 0.00251 mol percent in total phospholipid analysed | 0.002802 mol percent in total phospholipid analysed | 0.003238 mol percent in total phospholipid analysed | 0.002486 mol percent in total phospholipid analysed | 0.003248 mol percent in total phospholipid analysed | 0.002848 mol percent in total phospholipid analysed | 0.003136 mol percent in total phospholipid analysed | 0.003236 mol percent in total phospholipid analysed |  |  |  |  |  |  |  |  | 
2 | CCCCCCCCCCCCCCCCCC(=O)OC[C@@H](O)COP(=O)(O)O[C@@H]1[C@H](O)[C@H](O)[C@@H](O)[C@H](O)[C@H]1O [LPI18:0] | 0.0005793 mol percent in total phospholipid analysed | 0.0005906 mol percent in total phospholipid analysed | 0.0008329 mol percent in total phospholipid analysed | 0.0008095 mol percent in total phospholipid analysed | 0.001577 mol percent in total phospholipid analysed | 0.001227 mol percent in total phospholipid analysed | 0.0004241 mol percent in total phospholipid analysed | 0.001021 mol percent in total phospholipid analysed | 0.0008441 mol percent in total phospholipid analysed |  |  |  |  |  |  |  |  | 
3 | CCCCCCCCCCCCCC/C=C\OC[C@@H](O)COP(=O)(O)OCCN [Lyso PE16:0p] | 2.286 mol percent in total phospholipid analysed | 2.412 mol percent in total phospholipid analysed | 2.319 mol percent in total phospholipid analysed | 2.815 mol percent in total phospholipid analysed | 2.66 mol percent in total phospholipid analysed | 2.568 mol percent in total phospholipid analysed | 2.777 mol percent in total phospholipid analysed | 2.275 mol percent in total phospholipid analysed | 2.048 mol percent in total phospholipid analysed |  |  |  |  |  |  |  |  | 
4 | CCCCCCCCCCCCCCCCCC/C=C\OC[C@@H](O)COP(=O)(O)OCCN [Lyso PE20:0p] | 0.03687 mol percent in total phospholipid analysed | 0.04334 mol percent in total phospholipid analysed | 0.071 mol percent in total phospholipid analysed | 0.08199 mol percent in total phospholipid analysed | 0.04135 mol percent in total phospholipid analysed | 0.04891 mol percent in total phospholipid analysed | 0.04144 mol percent in total phospholipid analysed | 0.0529 mol percent in total phospholipid analysed | 0.05499 mol percent in total phospholipid analysed |  |  |  |  |  |  |  |  | 
5 | CCCCCCCCCCCCCCCC(=O)OC[C@@H](O)COP(=O)([O-])OCC[N+](C)(C)C [LysoPC16:0] | 0.07419 mol percent in total phospholipid analysed | 0.06621 mol percent in total phospholipid analysed | 0.07611 mol percent in total phospholipid analysed | 0.06264 mol percent in total phospholipid analysed | 0.06588 mol percent in total phospholipid analysed | 0.05812 mol percent in total phospholipid analysed | 0.05493 mol percent in total phospholipid analysed | 0.05681 mol percent in total phospholipid analysed | 0.05329 mol percent in total phospholipid analysed | 0.1654 mol percent in total phospholipid analysed | 0.1701 mol percent in total phospholipid analysed | 0.1803 mol percent in total phospholipid analysed | 0.1794 mol percent in total phospholipid analysed | 0.1964 mol percent in total phospholipid analysed | 0.1702 mol percent in total phospholipid analysed | 0.13 mol percent in total phospholipid analysed | 0.1488 mol percent in total phospholipid analysed | 0.1663 mol percent in total phospholipid analysed
6 | CCCCCCCCCCCCCCCCOC[C@@H](O)COP(=O)([O-])OCC[N+](C)(C)C [LysoPC16:0e] | 0.004985 mol percent in total phospholipid analysed | 0.004933 mol percent in total phospholipid analysed | 0.004329 mol percent in total phospholipid analysed | 0.004248 mol percent in total phospholipid analysed | 0.002959 mol percent in total phospholipid analysed | 0.003426 mol percent in total phospholipid analysed | 0.003897 mol percent in total phospholipid analysed | 0.00333 mol percent in total phospholipid analysed | 0.003527 mol percent in total phospholipid analysed | 0.007912 mol percent in total phospholipid analysed | 0.007046 mol percent in total phospholipid analysed | 0.007445 mol percent in total phospholipid analysed | 0.006266 mol percent in total phospholipid analysed | 0.005645 mol percent in total phospholipid analysed | 0.00646 mol percent in total phospholipid analysed | 0.005887 mol percent in total phospholipid analysed | 0.005682 mol percent in total phospholipid analysed | 0.005255 mol percent in total phospholipid analysed
